No constants are given. Whether binding was seen depends on the method and setting. Some results given as binding are weak or reduced against the parent protein; the word gives no strength.

Protein sequences, listed by entry. Tags and fused reporters are not part of them.
UniProt P25823: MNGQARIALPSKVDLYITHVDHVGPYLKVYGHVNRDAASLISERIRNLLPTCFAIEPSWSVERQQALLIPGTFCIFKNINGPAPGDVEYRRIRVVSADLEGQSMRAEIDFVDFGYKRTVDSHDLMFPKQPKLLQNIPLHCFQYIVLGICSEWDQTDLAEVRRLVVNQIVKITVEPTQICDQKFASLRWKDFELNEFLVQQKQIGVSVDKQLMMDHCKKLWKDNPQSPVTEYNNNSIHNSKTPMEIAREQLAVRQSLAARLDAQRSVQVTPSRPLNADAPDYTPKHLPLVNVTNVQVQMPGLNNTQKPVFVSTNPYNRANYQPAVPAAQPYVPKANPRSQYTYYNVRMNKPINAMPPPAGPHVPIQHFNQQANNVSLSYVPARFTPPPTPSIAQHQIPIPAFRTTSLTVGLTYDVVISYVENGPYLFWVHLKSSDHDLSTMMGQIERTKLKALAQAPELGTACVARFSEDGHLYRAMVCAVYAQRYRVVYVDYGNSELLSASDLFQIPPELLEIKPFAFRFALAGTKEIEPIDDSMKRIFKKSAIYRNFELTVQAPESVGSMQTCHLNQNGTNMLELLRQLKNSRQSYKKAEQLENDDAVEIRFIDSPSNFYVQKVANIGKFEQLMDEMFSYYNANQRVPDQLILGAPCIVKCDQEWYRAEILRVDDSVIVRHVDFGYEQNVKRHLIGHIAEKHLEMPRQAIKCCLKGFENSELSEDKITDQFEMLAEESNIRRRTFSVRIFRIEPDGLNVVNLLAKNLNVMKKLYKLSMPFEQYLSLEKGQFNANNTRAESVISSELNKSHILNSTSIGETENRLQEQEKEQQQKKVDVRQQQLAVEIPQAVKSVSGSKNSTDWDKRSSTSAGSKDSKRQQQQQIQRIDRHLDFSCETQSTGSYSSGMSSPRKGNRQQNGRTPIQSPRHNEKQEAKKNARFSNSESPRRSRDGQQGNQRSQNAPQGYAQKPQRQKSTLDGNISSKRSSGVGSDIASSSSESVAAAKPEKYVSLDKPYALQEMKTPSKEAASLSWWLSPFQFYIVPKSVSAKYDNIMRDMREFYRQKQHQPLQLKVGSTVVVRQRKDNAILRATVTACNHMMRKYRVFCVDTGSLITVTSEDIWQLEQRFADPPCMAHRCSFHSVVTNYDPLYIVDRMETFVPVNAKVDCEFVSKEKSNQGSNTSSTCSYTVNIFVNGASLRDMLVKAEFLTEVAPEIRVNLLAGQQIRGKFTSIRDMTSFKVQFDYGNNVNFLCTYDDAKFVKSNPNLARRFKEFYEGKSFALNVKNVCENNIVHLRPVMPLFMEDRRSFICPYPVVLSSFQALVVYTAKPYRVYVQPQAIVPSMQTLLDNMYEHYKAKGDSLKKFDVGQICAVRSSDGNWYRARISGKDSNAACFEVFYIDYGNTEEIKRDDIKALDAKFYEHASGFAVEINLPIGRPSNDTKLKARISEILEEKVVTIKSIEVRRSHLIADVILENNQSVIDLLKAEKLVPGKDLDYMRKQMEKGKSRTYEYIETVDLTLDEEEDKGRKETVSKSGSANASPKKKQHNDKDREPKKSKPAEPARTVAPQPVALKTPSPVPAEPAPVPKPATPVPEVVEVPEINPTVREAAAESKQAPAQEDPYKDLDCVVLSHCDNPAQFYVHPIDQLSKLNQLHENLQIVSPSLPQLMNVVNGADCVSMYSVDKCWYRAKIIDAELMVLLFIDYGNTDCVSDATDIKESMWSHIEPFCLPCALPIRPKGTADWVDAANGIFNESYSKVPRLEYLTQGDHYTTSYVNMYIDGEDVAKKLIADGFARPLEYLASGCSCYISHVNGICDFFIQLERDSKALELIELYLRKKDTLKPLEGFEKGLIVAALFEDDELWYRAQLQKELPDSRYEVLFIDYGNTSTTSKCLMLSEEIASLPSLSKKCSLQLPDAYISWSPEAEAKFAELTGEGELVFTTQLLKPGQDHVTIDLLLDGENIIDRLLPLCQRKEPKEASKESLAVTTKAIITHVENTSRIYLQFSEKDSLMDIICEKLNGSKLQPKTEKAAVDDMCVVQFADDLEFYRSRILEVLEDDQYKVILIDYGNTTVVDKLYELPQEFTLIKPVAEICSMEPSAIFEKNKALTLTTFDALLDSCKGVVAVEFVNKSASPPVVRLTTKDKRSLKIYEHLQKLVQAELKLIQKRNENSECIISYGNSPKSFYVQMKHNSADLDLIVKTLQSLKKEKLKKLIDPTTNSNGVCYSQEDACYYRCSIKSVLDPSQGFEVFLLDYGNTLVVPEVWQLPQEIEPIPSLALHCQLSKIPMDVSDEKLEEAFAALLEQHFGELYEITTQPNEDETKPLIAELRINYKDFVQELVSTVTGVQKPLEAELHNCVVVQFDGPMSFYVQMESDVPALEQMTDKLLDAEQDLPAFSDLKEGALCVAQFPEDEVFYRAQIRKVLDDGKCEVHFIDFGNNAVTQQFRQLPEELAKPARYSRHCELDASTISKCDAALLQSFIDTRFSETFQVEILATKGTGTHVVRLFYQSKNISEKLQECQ

In assay [1] the target is Myc-tagged eIF4A (Drosophila) (UniProt Q02748). The assay can be described thus: pull-down; purified Myc-eIF4A or Myc-GFP control bound to anti-c-Myc beads; purified HA-Tud added; conditions as for Aub-eIF4A; western blot with anti-HA; both purified. On the technique in general: A western blot detects proteins with antibodies after separation by electrophoresis.
The target of assay [2] is recombinant Tud with N-terminal His- and HA-tags (Drosophila) (UniProt P25823). The assay is described as follows: pull-down; HA-Tud bound to anti-HA beads; purified Myc-tagged eIF4A and eGFP control added; conditions as for Aub-eIF4A; both purified.

Regarding “recombinant Tud with N-terminal His- and HA-tags (from UniProt P25823 1-2515)”, the binding entry in assay [1] is “binds”.

B1: Myc-tagged eIF4A (enzyme, Drosophila, UniProt Q02748 1-403, looked up)
chain: MDDRNEIPQDGPASMEPEGVIESTWHEVYDNFDDMNLREELLRGIYGYGFEKPSAIQQRAIIPCVRGRDVIAQAQSGTGKTATFSIAILQQIDTSIRECQALILAPTRELATQIQRVVMALGEYMKVHSHACIGGTNVREDARILESGCHVVVGTPGRVYDMINRKVLRTQYIKLFVLDEADEMLSRGFKDQIQDVFKMLPPDVQVILLSATMPPDVLEVSRCFMRDPVSILVKKEELTLEGIKQFYVNVKQENWKLGTLCDLYDTLSITQSVIFCNTRRKVDQLTQEMSIHNFTVSAMHGDMEQRDREVIMKQFRSGSSRVLITTDLLARGIDVQQVSLVINYDLPSNRENYIHRIGRGGRFGRKGVAINFITDDDRRILKDIEQFYHTTIEEMPANIADLI
notes: eukaryotic translation initiation factor 4A (eIF4A), ATP-dependent RNA helicase, Drosophila; also called Myc-eIF4A; eukaryotic translation initiation factor 4A; source: S2 cells, purified (anti-c-Myc beads, c-Myc peptide elution)
As to B1, the binding entry in assay [2] is reported as “binds”.

The values above are taken from article PMC5302063, “In vivo mapping of a dynamic ribonucleoprotein granule interactome in early Drosophila embryos” (FEBS Open Bio, 2016).
